Reference: PubChem BioAssay AID686937 (Drosophila RNAi Screening Center, 2013)
In all, the deposit lists about 23,000 reagents; shown is an unselected part of those with a known target gene and a result. 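Reduced-secretion tags in replicate 1 do not always agree with the z-scores; no criterion for assigning the tags was given.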 The record does not give: the amount of reagent.

Screen: 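Genes in the fly needed for secretion of protein constitutively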 (primary screen)
Cells: Drosophila S2 cells expressing secreted horseradish peroxidase
Knock-down reagent: long dsRNA against Drosophila genes
Duration: about 5.5 days (5 days dsRNA, then 12 h reporter induction)
Conditions: reporter expression induced after 5 days of dsRNA, read 12 h later; inducer not stated
Detection: 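After 5 days of dsRNA and 12 h of reporter induction, medium peroxidase read by chemiluminescence and scored as per-plate z-score; higher values mean more reporter released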
Scale: z-score: higher = more reporter secreted into medium

The first 3 records, to show the layout:
| gene | dsRNA | z-score, replicate 1 | z-score, replicate 2 | phenotype, replicate 1 |
| --- | --- | --- | --- | --- |
| CG6724 (GeneID 34488) | DRSC02983 | 0.12 | 0.28 | – |
| Rabex-5 (GeneID 38144) | DRSC08628 | 0.27 | 0.37 | – |
| CG15201 (GeneID 32053) | DRSC19648 | 0.36 | 0.62 | – |

The listing, from the first entry:
| gene | dsRNA | z-score, replicate 1 | z-score, replicate 2 | phenotype, replicate 1 |
| --- | --- | --- | --- | --- |
| CG6724 (GeneID 34488) | DRSC02983 | 0.12 | 0.28 | – |
| Rabex-5 (GeneID 38144) | DRSC08628 | 0.27 | 0.37 | – |
| CG15201 (GeneID 32053) | DRSC19648 | 0.36 | 0.62 | – |
| CG13481 (GeneID 39579) | DRSC10023 | 0.22 | 0.45 | – |
| MrgBP (GeneID 35880) | DRSC06417 | -0.55 | -1.03 | – |
| CG34227 (GeneID 36186) | DRSC06788 | 0.22 | 0.43 | – |
| CG34227 (GeneID 36186) | DRSC07034 | 0.27 | 0.38 | – |
| RpL26 (GeneID 40060) | DRSC10726 | -4.55 | -2.78 | reduced secretion |
| FER (GeneID 41118) | DRSC12735 | 0.03 | 0.54 | – |
| FER (GeneID 41118) | DRSC16673 | 0.33 | 0.33 | – |
| mRpS34 (GeneID 39809) | DRSC09918 | -0.23 | 0.17 | – |
| Fkbp14 (GeneID 37449) | DRSC04615 | 0.11 | 0.04 | – |
| CG12521 (GeneID 50289) | DRSC09893 | 0.22 | 0.04 | – |
| CG4119 (GeneID 31481) | DRSC17741 | 0.48 | 0.72 | – |
| Or30a (GeneID 34236) | DRSC03385 | 0.37 | 0.33 | – |
| mtDNA-helicase (GeneID 34307) | DRSC02912 | 0.39 | 0.29 | – |
| ATPsynD (GeneID 42291) | DRSC14093 | -0.19 | -1.1 | – |
| Atxn7 (GeneID 33423) | DRSC00726 | 0.44 | 0.36 | – |
| Ack (GeneID 38489) | DRSC08135 | 0.29 | 0.21 | – |
| CG13077 (GeneID 35252) | DRSC02181 | 0.01 | 0.1 | – |
| CG31473 (GeneID 318753) | DRSC15443 | 0.26 | 0.44 | – |
| CG16739 (GeneID 37307) | DRSC06621 | 0.46 | 0.16 | – |
| Tengl1 (GeneID 318883) | DRSC00481 | 0.21 | 0.31 | – |
| sv (GeneID 43825) | DRSC17221 | 0.2 | 0.3 | – |
| dhd (GeneID 31444) | DRSC18761 | 0.01 | 0.08 | – |
| Dus1 (GeneID 33190) | DRSC00623 | 0.21 | 0 | – |
| CNMa (GeneID 38242) | DRSC08405 | -0.35 | -0.2 | – |
| sstn (GeneID 39643) | DRSC10753 | 0.65 | 0.32 | – |
| Elba3 (GeneID 33670) | DRSC00469 | 0.24 | 0.26 | – |
| lncRNA:CR43302 (GeneID 12798065) | DRSC12668 | 0.42 | 0.47 | – |
| Snx1 (GeneID 33560) | DRSC00531 | 0.06 | 0.17 | – |
| Tmem63 (GeneID 35779) | DRSC06063 | 0.4 | 0.31 | – |
| Gasz (GeneID 35795) | DRSC06829 | 0.39 | 0.44 | – |
